Measurements taken from PubChem BioAssay AID485353 (National Center for Advancing Translational Sciences (NCATS), 2010).
Out of some 330,000 compounds screened, about 610 (0.18%) were called active. This list was built around the results that the source calls inconclusive (neither active nor inactive); the mix of calls is not that of the screen. Calls follow the shape of the full dose curve. Potencies of inconclusive entries are doubtful fits and often do not repeat.

experiment: qHTS of Yeast-based Assay for SARS-CoV PLP; also: nearly all actives have a fitted effect of over 55% in size; conditions: S. cerevisiae expressing SARS-CoV PLpro; Potency: growth rescue; series mostly up to 32.9 µM
Potency is read from the fitted curve at half-maximal effect.

Compound | Potency
COC1=CC(=O)c2ccccc2C1=O | inactive
COc1ccc(C2Nc3ccccc3NC3=C2C(=O)CC(C)(C)C3)cc1 (stereo unspecified) | inactive
CC(C)C(=O)NS(=O)(=O)c1ccc(N)cc1 | inconclusive: 2.24 µM [activator, single point]
CC(=O)c1c(N2CCCC2)[nH]c(-c2ccccc2)nc1=S | inconclusive: 10 µM [activator, single point]
O=C1CCC(C(=O)N2CCSCC2)CN1Cc1ccc(Cl)cc1 (stereo unspecified) | inconclusive: 3.98 µM [activator, single point]
CC(NC(=O)/C(C#N)=C1\N=C(NC(=O)c2cccs2)c2ccccc21)c1ccccc1 (stereo unspecified) | inconclusive: 20 µM [activator, single point]
C[C@H]1CN(CCc2ccccc2)C(=O)[C@@H]1CC(=O)NCc1ccccc1 | inactive
COc1ccc(C2C(C(=O)C(C)(C)C)=C(O)C(=O)N2Cc2ccccc2)cc1 (stereo unspecified) | inconclusive: 12.6 µM [activator, single point]
CCNC(=O)NC(=O)C(C)Sc1nnc(COc2ccccc2Cl)o1 (stereo unspecified) | inconclusive: 20 µM [activator, single point]
COC(=O)c1ccc(C(=O)OC)c(NC(=S)N2CCCC(C)C2)c1 (stereo unspecified) | inconclusive: 7.94 µM [activator, partial curve]
CCc1cc(=O)oc2cc(C)c(CN3CCCC(C)C3)c(O)c12 (stereo unspecified) | inactive
Cc1cccc(NC(=O)COC(=O)CNC(=O)C2CCCCC2)c1 | inconclusive: 3.98 µM [activator, single point]
O=C1Cc2cc(S(=O)(=O)N3CCN(c4cccc(Cl)c4)CC3)ccc2N1 | inactive
O=C(Cc1ccccc1)NNC(=S)Nc1ccc(Cl)cc1 | inconclusive: 11.2 µM [activator, partial curve, poor fit]
O=C(/C=C/c1ccc(Cl)cc1Cl)NCCSCc1ccccc1 | inconclusive: 14.1 µM [activator, single point]
O=C(NC1CCCCC1)C(c1ccco1)N(Cc1cccnc1)C(=O)C1COc2ccccc2O1 (stereo unspecified) | inconclusive: 22.4 µM [activator, single point]
CCOc1cc(CNC(C)C)c(Cl)cc1OCC(=O)NCCc1ccccc1 | inactive
COc1cc([N+](=O)[O-])cc(/C=N/NC(=O)CC#N)c1O | active: 7.08 µM
Cc1ccnc(NC(=O)C2COc3ccccc3O2)c1 (stereo unspecified) | inconclusive: 20 µM [activator, single point]
COc1ccc(NC(=O)O/N=C/c2c(C)nn(C(C)(C)C)c2C)cc1 | inactive
CC(C)(C)c1ccc(OC(=O)N2CCOCC2)cc1 | inconclusive: 4.47 µM [activator, single point]

2 neighbouring compounds already listed, quoted:
Compound | Potency
CCOc1cc(CNC(C)C)c(Cl)cc1OCC(=O)NCCc1ccccc1 | inactive
COc1cc([N+](=O)[O-])cc(/C=N/NC(=O)CC#N)c1O | active: 7.08 µM
